Measured values: article PMC12775136
No constants are given. Whether binding was seen depends on the method and setting.

Target: UPF2sΔAL (human)
Assay: SEC; analytical SEC, Superdex 200 Increase 3.2/300; 1000 pmol of 3′hExo and 2000 pmol of UPF2-AL; overnight at 4 °C; 20 mM HEPES pH 7.5, 75 mM NaCl, 5% glycerol, 1 mM MgCl2, 2 mM DTT; both purified

B1: 3′hExofl (enzyme, UniProt Q8IV48 1-349)
chain: MEDPQSKEPAGEAVALALLESPRPEGGEEPPRPSPEETQQCKFDGQETKGSKFITSSASDFSDPVYKEIAITNGCINRMSKEELRAKLSEFKLETRGVKDVLKKRLKNYYKKQKLMLKESNFADSYYDYICIIDFEATCEEGNPPEFVHEIIEFPVVLLNTHTLEIEDTFQQYVRPEINTQLSDFCISLTGITQDQVDRADTFPQVLKKVIDWMKLKELGTKYKYSLLTDGSWDMSKFLNIQCQLSRLKYPPFAKKWINIRKSYGNFYKVPRSQTKLTIMLEKLGMDYDGRPHCGLDDSKNIARIAVRMLQDGCELRINEKMHAGQLMSVSSSLPIEGTPPPQMPHFRK
binding: no binding
